Assay results from publication PMC4924746.

Chains of the proteins cited; added tags and fusions are not shown. Residues count along the entry.
UniProt P02545, residues 1-646: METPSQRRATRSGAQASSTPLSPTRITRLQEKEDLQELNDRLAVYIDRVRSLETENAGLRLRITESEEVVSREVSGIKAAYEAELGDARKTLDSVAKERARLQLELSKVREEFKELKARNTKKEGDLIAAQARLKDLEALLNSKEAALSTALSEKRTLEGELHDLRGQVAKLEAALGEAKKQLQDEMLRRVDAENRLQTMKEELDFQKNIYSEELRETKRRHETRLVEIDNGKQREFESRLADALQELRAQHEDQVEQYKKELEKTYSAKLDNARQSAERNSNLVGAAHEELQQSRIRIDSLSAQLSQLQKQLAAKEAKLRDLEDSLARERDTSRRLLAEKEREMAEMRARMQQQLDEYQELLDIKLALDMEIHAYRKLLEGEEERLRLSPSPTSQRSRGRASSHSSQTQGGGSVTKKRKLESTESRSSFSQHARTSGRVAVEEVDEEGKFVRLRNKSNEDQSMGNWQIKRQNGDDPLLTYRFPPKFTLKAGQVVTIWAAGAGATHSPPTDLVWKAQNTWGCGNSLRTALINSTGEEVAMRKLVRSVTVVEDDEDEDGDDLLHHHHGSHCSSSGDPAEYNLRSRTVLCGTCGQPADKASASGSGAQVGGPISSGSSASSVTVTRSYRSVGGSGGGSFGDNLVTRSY

Target: T1, SPANX-C-V5 fusion protein (UniProt Q9NY87)
T1 sequence: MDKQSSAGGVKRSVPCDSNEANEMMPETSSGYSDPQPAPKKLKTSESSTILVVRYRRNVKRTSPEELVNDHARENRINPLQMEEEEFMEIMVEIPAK
Assay: affinity purification with mass spectrometry; SPANX-C-V5 immunoprecipitates, with proteins bound to protein-A sepharose beads as control; run into an SDS/PAGE gel, digested with trypsin, reverse phase LC-MS/MS

binding: binds
Substance: Lamin A/C (Lamin A and Lamin C, products of the LMNA gene) (from UniProt P02545 1-646)

No constants are given. Whether binding was seen depends on the method and setting. In cells and extracts the contact can be indirect. Here binding means that the protein was enriched with, or labelled near, the bait; the list need not be complete. Where a sequence is shown, tags or fusion partners need not be part of it.
